Data source: PubChem BioAssay AID743121 (NCATS, 2013)
In all, the deposit lists about 26,000 reagents; below is an unselected part. 167 of them (0.63%) were called active. 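Calls are per gene from RSA p-values that are not deposited; an individual active-marked siRNA can sensitise only weakly.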 The numbers tell different reagents against one gene apart.

- Assay: 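Partners whose loss is lethal together with topoisomerase I blockade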 (primary screen)
- Cell system: MDA-MB-231 cells, a human breast cancer line
- Knock-down reagent: single siRNA against human genes, 20 nM siRNA (0.8 pmol per well)
- Time to read-out: 120 h (drug added 48 h after transfection, read 72 h later)
- Conditions: camptothecin 20 nM (about EC30) for 72 h; vehicle 0.1% DMSO in parallel plates
- Detection: 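CellTiter-Glo ATP signal, scaled to control siRNA as percent viability; sensitisation given as log2 of untreated divided by camptothecin-treated viability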
- Direction: log2 vehicle/camptothecin viability: higher = stronger sensitisation to camptothecin; viability with camptothecin and viability without drug: higher = more viable cells
- Rule for the call: 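Each gene scored by redundant siRNA activity (RSA) over its individual siRNA ratios; a gene is called active at p < 0.001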

target gene | siRNA no. | log2 vehicle/camptothecin viability | viability with camptothecin (% of control) | viability without drug (% of control) | outcome
GOLGA5 | 1 | -0.0766 | 83.4 | 79.1 | inactive
GOLGA5 | 2 | -0.73 | 85 | 51.3 | inactive
GOLGA5 | 3 | -0.232 | 60.5 | 51.5 | inactive
GOLGA5 | 4 | -0.0157 | 95.8 | 94.7 | inactive
KIF5C | 1 | -0.293 | 78.2 | 63.8 | inactive
KIF5C | 2 | -0.349 | 31.5 | 24.8 | inactive
KIF5C | 3 | -0.0838 | 84.6 | 79.8 | inactive
KIF5C | 4 | 1.05 | 19.6 | 40.5 | inactive
KIF5C | 5 | -0.163 | 105 | 93.5 | inactive
KIF5C | 6 | 0.0279 | 91.4 | 93.2 | inactive
KIF5C | 7 | -0.143 | 51.1 | 46.3 | inactive
KIF5C | 8 | -0.119 | 113 | 104 | inactive
SOCS6 | 1 | 0.908 | 38.4 | 72.1 | inactive
SOCS6 | 2 | -0.323 | 86.7 | 69.3 | inactive
SOCS6 | 3 | -0.289 | 108 | 88.8 | inactive
SOCS6 | 4 | -0.282 | 97.4 | 80.1 | inactive
FSHR | 1 | -0.101 | 55.3 | 51.5 | inactive
FSHR | 2 | -0.199 | 51.4 | 44.7 | inactive
FSHR | 3 | 0.22 | 66.7 | 77.6 | inactive
FSHR | 4 | -0.00763 | 52.2 | 52 | inactive
CD79B | 1 | -0.393 | 56.9 | 43.3 | inactive
CD79B | 2 | 0.659 | 30.8 | 48.7 | inactive
CD79B | 3 | -0.224 | 29.1 | 25 | inactive
PLA1A | 1 | 0.29 | 30.5 | 37.4 | inactive
PLA1A | 2 | -0.0658 | 98.3 | 93.9 | inactive
PLA1A | 3 | 0.135 | 76 | 83.5 | inactive
PLA1A | 4 | -0.161 | 82.2 | 73.6 | inactive
DRD1 | 1 | -0.423 | 89.9 | 67.1 | inactive
DRD1 | 2 | -0.394 | 39.7 | 30.2 | inactive
DRD1 | 3 | 0.185 | 61.6 | 70.1 | inactive
DRD1 | 4 | 0.0483 | 96.3 | 99.5 | inactive
AFM | 1 | -0.297 | 98.4 | 80.1 | inactive
AFM | 2 | 0.204 | 27.8 | 32 | inactive
AFM | 3 | -0.247 | 53.2 | 44.8 | inactive
OVOL1 | 1 | -0.322 | 69.5 | 55.6 | inactive
OVOL1 | 2 | 0.0482 | 69.2 | 71.6 | inactive
OVOL1 | 3 | -0.396 | 96 | 72.9 | inactive
OVOL1 | 4 | 0.215 | 40.3 | 46.8 | inactive
ESAM | 1 | -0.0301 | 106 | 104 | inactive
ESAM | 2 | 0.134 | 56.8 | 62.3 | inactive
ESAM | 3 | -0.382 | 101 | 77.3 | inactive
ESAM | 4 | 0.542 | 33.1 | 48.2 | inactive
SLA2 | 1 | 0.213 | 57.5 | 66.7 | inactive
SLA2 | 2 | -0.556 | 144 | 97.8 | inactive
SLA2 | 3 | -0.253 | 59.1 | 49.6 | inactive
OR8D1 | 1 | 0.078 | 84.4 | 89.1 | inactive
OR8D1 | 2 | -0.173 | 103 | 91.4 | inactive
OR8D1 | 3 | 0.333 | 46.2 | 58.2 | inactive
OR8D1 | 4 | 0.0587 | 87 | 90.6 | inactive
GNA13 | 1 | -0.235 | 96.9 | 82.4 | inactive
GNA13 | 2 | -0.125 | 55.1 | 50.5 | inactive
GNA13 | 3 | -0.756 | 75.5 | 44.7 | inactive
RPS6KA3 | 1 | -0.316 | 57.1 | 45.8 | inactive
RPS6KA3 | 2 | -0.207 | 84.3 | 73 | inactive
RPS6KA3 | 3 | -0.183 | 114 | 100 | inactive
RPS6KA3 | 4 | -0.181 | 58.7 | 51.7 | inactive
GADD45B | 1 | -0.126 | 52.8 | 48.4 | inactive
GADD45B | 2 | -0.0743 | 37.5 | 35.6 | inactive
GADD45B | 3 | 0.284 | 70 | 85.2 | inactive
GADD45B | 4 | 0.174 | 68.3 | 77 | inactive
FAP | 1 | -0.0323 | 102 | 99.4 | inactive
FAP | 2 | -0.0797 | 85.2 | 80.6 | inactive
FAP | 3 | -0.168 | 89 | 79.2 | inactive
FAP | 4 | -0.391 | 78.8 | 60.1 | inactive
NOS1 | 1 | -0.0696 | 80.1 | 76.4 | inactive
NOS1 | 2 | 0.384 | 61.8 | 80.7 | inactive
NOS1 | 3 | -0.346 | 94 | 73.9 | inactive
TSPOAP1 | 1 | -0.072 | 97.8 | 93 | inactive
TSPOAP1 | 2 | -0.168 | 33.2 | 29.6 | inactive
TSPOAP1 | 3 | -0.232 | 72.6 | 61.8 | inactive

Already shown: 12 of the entries above.
target gene | siRNA no. | log2 vehicle/camptothecin viability | viability with camptothecin (% of control) | viability without drug (% of control) | outcome
DRD1 | 1 | -0.423 | 89.9 | 67.1 | inactive
DRD1 | 2 | -0.394 | 39.7 | 30.2 | inactive
DRD1 | 3 | 0.185 | 61.6 | 70.1 | inactive
DRD1 | 4 | 0.0483 | 96.3 | 99.5 | inactive
AFM | 1 | -0.297 | 98.4 | 80.1 | inactive
AFM | 2 | 0.204 | 27.8 | 32 | inactive
AFM | 3 | -0.247 | 53.2 | 44.8 | inactive
OVOL1 | 1 | -0.322 | 69.5 | 55.6 | inactive
OVOL1 | 2 | 0.0482 | 69.2 | 71.6 | inactive
OVOL1 | 3 | -0.396 | 96 | 72.9 | inactive
OVOL1 | 4 | 0.215 | 40.3 | 46.8 | inactive
ESAM | 1 | -0.0301 | 106 | 104 | inactive
